# Laboratory results reported in PubChem BioAssay AID1671190 (National Center for Advancing Translational Sciences (NCATS), 2021).
# Amino acid sequences for entries named in this document (tags omitted). A change or cut given only in a name is not applied to a line headed by its entry.
# UniProt P18054: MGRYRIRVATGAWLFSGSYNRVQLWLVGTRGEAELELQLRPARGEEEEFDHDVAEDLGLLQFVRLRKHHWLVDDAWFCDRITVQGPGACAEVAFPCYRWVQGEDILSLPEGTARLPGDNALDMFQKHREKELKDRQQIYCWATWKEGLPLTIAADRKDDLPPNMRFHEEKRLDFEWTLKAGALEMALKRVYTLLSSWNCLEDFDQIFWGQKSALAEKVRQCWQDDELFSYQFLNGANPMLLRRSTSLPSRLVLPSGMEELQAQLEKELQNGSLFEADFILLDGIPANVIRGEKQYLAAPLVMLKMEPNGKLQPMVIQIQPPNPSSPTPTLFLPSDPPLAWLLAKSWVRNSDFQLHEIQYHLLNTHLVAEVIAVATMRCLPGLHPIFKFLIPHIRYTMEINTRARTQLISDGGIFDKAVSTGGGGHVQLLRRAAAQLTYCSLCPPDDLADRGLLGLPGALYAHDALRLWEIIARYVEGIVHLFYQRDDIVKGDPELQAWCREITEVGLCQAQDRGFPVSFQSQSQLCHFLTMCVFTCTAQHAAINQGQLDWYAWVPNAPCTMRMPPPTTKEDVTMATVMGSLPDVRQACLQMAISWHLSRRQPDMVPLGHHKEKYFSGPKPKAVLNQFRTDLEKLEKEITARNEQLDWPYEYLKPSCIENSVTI
# Where “and” joins values, the source holds several entries; their conditions need not be identical. Identical values can stand only once. Hit rate of the full screen: of about 580,000 compounds, about 6,100 (1.1%) were called active. This list was built around the results that the source calls inconclusive (neither active nor inactive); the mix of calls is not that of the screen. Calls come from the whole dose curve; as a rule, active = well fitted inhibition curve with a large enough effect; inconclusive = small, poorly fitted or top-dose-only effect, or another doubt; inactive = no such curve, though single readings can be large or run the other way. A potency beside an inconclusive call is a rough fit, not a confirmed value.
# Biological target: Polyunsaturated fatty acid lipoxygenase ALOX12 (Homo sapiens) (UniProt P18054)
# Experiment: Primary qHTS assay for inhibitors of human arachidonate 12S-lipoxygenase (ALOX12): Round 2
# Details: purified 12hLO, xylenol orange hydroperoxide absorbance; series mostly up to 108 µM
# Summary of the method: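 Purified human 12hLO at 150 nM in 25 mM Hepes, 0.01% Triton X-100, pH 7.0, preincubated 15 min at room temperature with compound. Reaction started with 40 uM arachidonic acid, 30 min at room temperature. Hydroperoxide measured by Fe-xylenol orange, 573/405 nm absorbance ratio.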
# Potency is the fitted concentration of half-maximal effect.
row,SMILES,Potency
1,O=C1CCN(Cc2ccc(C(F)(F)F)cc2)CCCC(c2nc(-c3cccnc3)no2)CCN1 (stereo not given),"inconclusive: 100 µM [inhibitor, single point]"
2,CC1(C)Cc2c(c(=S)nc(-c3ccccc3)n2CCO)CO1,"inconclusive: 35.5 µM [inhibitor, partial curve, poor fit]"
3,CCS(=O)(=O)Nc1ccc(Cc2ccncc2)cc1,inactive
4,Cc1cc(OC(C)C(=O)NCCCN(C)C)c2c(C)c(C)c(=O)oc2c1 (stereo not given),inactive
5,COC1CCN(C(=O)c2ccnc(-c3nnc4ccc(N(C)c5ccccc5)nn34)c2)CC1,"inconclusive: 56.2 µM [inhibitor, partial curve, poor fit]"
6,COc1cc(C2Oc3nc(SC)nnc3-c3ccccc3N2C(C)=O)cc(Cl)c1OC (stereo not given),"inconclusive: 79.4 µM [inhibitor, partial curve, poor fit] and inconclusive: 56.2 µM [inhibitor, full curve, poor fit]"
7,CCNC(=O)NC(=O)CN(CCC1CCCCC1)CC(N)=O,"inconclusive: 31.6 µM [inhibitor, partial curve]"
8,Cc1ccc(-n2ncc3c(NCc4ccccc4)ncnc32)cc1C,inactive
9,Cn1nnnc1-c1cccc(NS(=O)(=O)c2ccccc2)c1,"inconclusive: 79.4 µM [inhibitor, partial curve, poor fit]"
10,Cc1ccc(CNC(=O)CCCn2ccc3cc(S(=O)(=O)N4CCCC4)ccc32)o1,"inconclusive: 100 µM [inhibitor, partial curve, poor fit]"
11,COc1ccc(NS(=O)(=O)c2cc(NC(=O)c3ccccn3)ccc2OC)cc1Br,inactive
12,CCN(CC)c1ccc(C=C2C(=O)OC3(CCCCC3)OC2=O)cc1,"inconclusive: 3.98 µM [inhibitor, full curve, poor fit]"
13,C[C@H](c1ccccc1)N1C[C@H](COCc2ccccc2)Oc2cc(N3CCC[C@H]3CO)ccc2S1(=O)=O,active: 50.1 µM
14,CC(N)c1csc(Nc2ccc(S(C)(=O)=O)cc2)n1 (stereo not given),inactive
15,NCc1oc(-c2ccccc2)cc1C(=O)O,active: 10 µM
16,Cc1ccc(C2CC(c3cccs3)=NN2C(=O)c2ccco2)o1 (stereo not given),"inconclusive: 50.1 µM [inhibitor, partial curve, poor fit]"
17,Cc1cnc(NC(=O)Cc2ccc(Br)cc2)s1,inactive
18,O=C1Cc2c(-c3ccccc3Cl)n[nH]c2CN1CC1CC1,"inconclusive: 14.1 µM [inhibitor, full curve, poor fit]"
19,COc1ccc2c(c1)C(=O)/C(=C/C=C/c1ccccc1)CC2,"inconclusive: 50.1 µM [inhibitor, partial curve, poor fit]"
20,CCOc1cc2[nH]c(=O)n(CCCN3CCN(c4ccc(OC)cc4)CC3)c(=O)c2cc1OCC,inactive
21,COc1ccccc1CNC(=O)CSC(=S)N1CCCC1,inactive
22,CCOc1cccc(/C(O)=C2/C(=O)C(=O)N(CCN3CCOCC3)C2c2cccnc2)c1 (stereo not given),"inconclusive: 35.5 µM [inhibitor, partial curve, poor fit]"

row,SMILES,Potency
1,O=C(c1ccco1)N(CCC(c1ccccc1)c1ccco1)Cc1ccccc1 (stereo not given),"inconclusive: 50.1 µM [inhibitor, partial curve, poor fit]"
2,COc1ccc(CN2CCN(C(=O)CC(C)C)CC2)cc1OC,"inconclusive: 0.282 µM [inhibitor, full curve, poor fit]"
3,C[C@]1(c2nc3c(C(N)=O)cccc3[nH]2)CCCN1,inactive
4,COc1ccc(C(=O)CC2(O)C(=O)N(Cc3c(F)cccc3Cl)c3ccccc32)c(OC)c1 (stereo not given),"inconclusive: 126 µM [inhibitor, single point]"
5,CC(=O)NNC(=S)Nc1cccc(C(F)(F)F)c1,inactive
6,CC(C)CC1(C)N=C(c2ccccc2)C(=S)N1 (stereo not given),"inconclusive: 44.7 µM [inhibitor, partial curve, poor fit]"
7,CCN(CC)C(=O)[C@H]1CC(CC(=O)NCC23CC4CC(CC(C4)C2)C3)C(=O)N2CCc3c([nH]c4ccccc34)[C@]12C (stereo not given in full),"inconclusive: 70.8 µM [inhibitor, partial curve, poor fit]"
8,COc1ccc(S(=O)(=O)c2cc3c(cc2NC(=O)c2ccccc2Cl)n(C)c(=O)n3C)cc1,"inconclusive: 112 µM [inhibitor, partial curve, poor fit]"
9,COc1ccc(NS(=O)(=O)c2cccc(C(=O)OCC(=O)NC3CC3)c2)cc1,"inconclusive: 112 µM [inhibitor, single point]"
10,N#Cc1ccccc1COc1ccc(/C=C/C(=O)O)cc1,inactive
11,CC(=O)NNC(=S)Nc1ccc(C)cc1C,inactive
12,Oc1ccccc1C=NNC(=S)NN=Cc1ccccc1O,"inconclusive: 44.7 µM [inhibitor, partial curve, poor fit]"
13,CC1(C)CC(N(Cc2ccc(F)cc2)C(=O)c2ccc(F)cc2)CCO1 (stereo not given),inactive
14,CCN(CC)c1cccc(OC2=NS(=O)(=O)c3ccccc32)c1,"inconclusive: 25.1 µM [inhibitor, partial curve, poor fit]"
15,O=C1NC(=S)N(C(=O)c2ccc(F)cc2)/C1=C/c1ccccc1,"inconclusive: 6.31 µM [inhibitor, full curve, poor fit]"
16,O=C(O)C1C2CCC(O2)C1C(=O)Nc1ccc(Cl)cc1F (stereo not given),"inconclusive: 39.8 µM [inhibitor, partial curve, poor fit]"
17,CCOc1ccc(-c2cnc3n2CCC3)cc1,"inconclusive: 7.08 µM [inhibitor, partial curve, poor fit]"
18,O=C(Cc1cccc(Cl)c1)N1CCc2nc(-c3ccccc3)nc(-c3ccc(Cl)cc3)c2C1,inactive
19,CC1(C)CC(=O)C(N=Nc2cccc(S(=O)(=O)N3CCOCC3)c2)=C(O)C1,"inconclusive: 50.1 µM [inhibitor, partial curve, poor fit]"
20,COCCNc1ncnc2ccc(-c3cccc(NS(C)(=O)=O)c3)cc12,"inconclusive: 44.7 µM [inhibitor, partial curve, poor fit]"
21,COc1ccc(C)cc1NCC(=O)Nc1ccc(C(C)(C)C)cc1,inactive
22,COc1ccc(C2CC(c3ccccc3)=NN2C(=O)COC(=O)c2nc3nc(C)cc(C)n3n2)cc1 (stereo not given),"inconclusive: 56.2 µM [inhibitor, partial curve, poor fit]"

row,SMILES,Potency
1,Cc1ccsc1-c1[nH]nc2ncc(-c3c(C)noc3C)nc12,"inconclusive: 50.1 µM [inhibitor, full curve, poor fit]"
2,CCN(Cc1ccccc1)C(=O)C1CCN(Cc2sccc2C)CC1,"inconclusive: 6.31 µM [inhibitor, full curve, poor fit]"
3,COc1ccc(-n2ccc(=O)c(C(=O)O)n2)c(OC)c1,"inconclusive: 50.1 µM [inhibitor, partial curve, poor fit]"
4,COc1ccc(CCNC(=S)Nc2cc(C)cc(C)c2)cc1,"inconclusive: 15.8 µM [inhibitor, partial curve, poor fit]"
5,N#Cc1cc2c(nc1SCc1ccncc1)CCC2,"inconclusive: 15.8 µM [inhibitor, full curve]"
6,CCCN1CCC(C)(C(=O)Nc2ccccc2Oc2ccccc2)C1 (stereo not given),"inconclusive: 112 µM [inhibitor, partial curve, poor fit]"
7,COc1ccc(Sc2ccc(NC(=O)c3ccccc3Cl)cc2C#N)cc1,inactive
8,O=C1CC(c2ccccc2)N(C(=O)CNC(=O)c2[nH]nc3c2COc2ccccc2-3)CCCCCN1 (stereo not given),inactive
9,O=C(O)CC(NC(=O)Cc1ccccc1)c1ccccc1 (stereo not given),"inconclusive: 5.01 µM [inhibitor, full curve, poor fit]"
10,CC(C)c1ccc(CNC(=O)CCC2CCN(C(=O)c3ccccc3F)CC2)cc1,inactive
11,c1ccc(Nc2ncnc3c2oc2ccccc23)cc1,"inactive and inconclusive: 2.82 µM [inhibitor, full curve, poor fit]"
12,COc1ccccc1N1CCN(C(=O)c2cc3cc(Br)ccc3oc2=O)CC1,"inconclusive: 112 µM [inhibitor, single point]"
13,COC(=O)c1ccc(NC(=O)COC(=O)c2oc3ccccc3c2C)cc1,"inconclusive: 0.355 µM [inhibitor, single point]"
14,Cc1cc(OC(=O)c2ccccc2Br)c([N+](=O)[O-])c(=O)[nH]1,"inconclusive: 31.6 µM [inhibitor, partial curve, poor fit]"
15,Cc1ccc(NC(=O)Cc2nc(CSc3nncn3-c3ccccc3C)cs2)cc1,"inconclusive: 3.16 µM [inhibitor, full curve, poor fit]"
16,CC(C)(C)C1=CC(=Cc2cc(C(C)(C)C)c(O)c(C(C)(C)C)c2)C=C(C(C)(C)C)C1=O,"inconclusive: 14.1 µM [inhibitor, partial curve, poor fit]"
17,CCCCn1nnnc1SCC(=O)c1cc(Cl)ccc1OC,inactive
18,C[C@]1(O)CCN(C(=O)Cc2ccc(-n3cnnn3)cc2)C[C@@H]1O,inactive
19,CC(C)c1ccc(Nc2cc3[nH]c(-c4cccc(F)c4)cc3cn2)cc1,"inconclusive: 56.2 µM [inhibitor, partial curve, poor fit]"
20,COc1ccc(-n2c(C)cc(/C=C3\SC(=O)NC3=O)c2C)cc1,"inconclusive: 31.6 µM [inhibitor, partial curve, poor fit]"
21,Cc1ccc(Cn2c(C3CCN(C(=O)c4cc(C)cc(C)c4)CC3)n[nH]c2=O)cc1,"inconclusive: 39.8 µM [inhibitor, partial curve, poor fit]"
